Experimental findings from PubChem BioAssay (NCATS) are described below.

The list shows a part of the results. Shown are side measurements of this screen, not its main read-out; they come without a call. For part of these data: Compounds called inactive in the main read-out are mostly missing here. Potencies come from curve fits of mixed quality, noted in brackets.

The nature of experiment [1]: Validation of Assay for Modulators of Lamin A Splicing (AID 1459). To be noted: Lamin A splicing dual RFP/GFP fluorescence reporter, ratio. The gist of the method:
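S3 HeLa cells stably expressing a lamin A-EGFP splicing minigene and DsRed2 were seeded at 600 cells/well in Opti-MEM with 2% FBS, pin-dosed, and incubated 48 hrs at 37 °C, 5% CO2. Laser-scanning cytometry (488 nm) gave GFP/RFP total intensity ratio.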

A short description of experiment [2]: qHTS Assay for Lipid Storage Modulators (AID 1519). The settings on record: Drosophila S3 cells, BODIPY lipid droplet/cell ratio, laser cytometry, cells loaded with oleic acid. The gist of the method:
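Cells seeded at 5,000 per well were treated with compounds over a concentration series and loaded with oleic acid (400 uM, as added). Lipid droplet fluorescence (488 nm excitation, 500-530 nm channel) was read by laser-scanning cytometry and normalized to 20 uM Triacsin C.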
(In general: In qHTS, concentration-response curves come from the screen itself.)

The nature of experiment [3]: qHTS Assay for Modulators of Human Peripheral Myelin Protein 22 (PMP22) Expression/Activity (AID 1967). To be noted: Cell-based PMP22 reporter, dual-color luciferase ratio. The gist of the method:
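MSC80 mouse Schwann cells stably carrying Pmp22 promoter–green click beetle luciferase plus EF-alpha–red luciferase control were dosed for 24h at 37 °C. Dual-colour luminescence was filter-overlap corrected; %Activity came from green/red ratio versus untreated cells.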

Experiment [4] is described as follows: qHTS Validation Assay to Find Inhibitors of Chronic Active B-Cell Receptor Signaling (AID 485345). The settings on record: ABC-DLBCL cells, chronic BCR signaling reporter. The gist of the method: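 TMD8 ABC-DLBCL cells with dox-inducible green luciferase–IκBα fusion and red native luciferase; compounds 46 uM–3 nM, 4 h at 37C with doxycycline in 0.5% FBS IMDM. Green/red ratio normalized to basal and 10 uM MG-132.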

The nature of experiment [5]: A High-Content qHTS Against Drug Library for the Identification of Small Molecules that Inhibit DYT1 Early Onset Primary Dystonia-Associated Cell Pathology (AID 1645839). To be noted: HEK293 Flp-In EGFP-delE TorsinA, punctate imaging, 48 h; measured here: cell count cytotoxicity. The gist of the method: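 Induced EGFP-delE TorsinA cells are imaged after 48 h of compound treatment. Punctate fusion-protein distribution gives the %pathology value, while nuclei counts flag toxicity. Wild-type EGFP-hTOR1A cells define the normal pattern.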

Experiment [6] in a line: qHTS drug screen for cell cycle checkpoint inhibitors in PARPi-resistant BRCA-mutant ovarian cancer cell lines. (AID 1963452). The settings on record: PEO1/OlaR viability, CellTiter-Glo luminescence, 96 h; measured here: PEO4 viability. The gist of the method: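 PEO1, PEO4 and PEO1/OlaR ovarian cancer cells, 600 per well, exposed 96 h at 37C to a dilution series. Viability read by CellTiter-Glo luminescence, normalized to DMSO and empty wells; activity summarized as Z-AUC.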

Experiment [7] can be described thus: Nrf2 qHTS screen for inhibitors: Validation (AID 493153). To be noted: A549 ARE-Fluc reporter, 18-24 h; AC50: CellTiter-Fluor fluorescence read, measured here: cytotoxicity CellTiter-Fluor AC50; viability change: measured here: cytotoxicity max response. The gist of the method:
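In this counterscreened reporter format, each well gives two signals: CellTiter-Fluor fluorescence for cytotoxicity and ARE-luciferase luminescence for Nrf2 function. A549 ARE_Fluc cells in 5% FBS OPTI-MEM were exposed to compound titrations for 18-24 h.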

The mark [8] stands for this setting: measured here: cell count channel max response.
Setting [9] is: measured here: lipid channel max response.
The mark [10] stands for this setting: measured here: green reporter channel AC50, mouse Pmp22 promoter in mouse Schwann cells.
[11] abbreviates: measured here: red reporter channel AC50, EF-alpha promoter control reporter in MSC80 mouse Schwann cells.
[12] abbreviates: measured here: CBR control luciferase (viability counter).
Setting [13] is: measured here: CBG/CBR ratio read-out.

A word on the AC50: it is the midpoint of the concentration-response curve, whichever way the signal moves. In the case of `COC(=O)[C@@H]1[C@H]2C[C@H]3c4[nH]c5ccccc5c4CCN3C[C@@H]2CC[C@@H]1O`, the half-maximal activity concentration (AC50) is 0.00178 µM [rising, full curve, poor fit] in experiment [1] (measured here: GFP channel); 3.98 µM [falling, single point] in experiment [1] (measured here: RFP channel); 33.8 µM [falling, partial curve] in experiment [3] (setting [10]); 47.8 µM [falling, partial curve] in experiment [3] (setting [11]); 7.31 µM [falling, partial curve, poor fit] in experiment [4] (setting [12]); 11.2 µM [rising, partial curve, poor fit] in experiment [5]. The max response in experiment [2] (setting [8]) was 15.7%; in experiment [2] (setting [9]), 16%.

Regarding `CN(C)S(=O)(=O)c1ccc2c(c1)/C(=C/c1cc3c([nH]1)CCCC3)C(=O)N2`, the half-maximal activity concentration (AC50) was 14.1 µM [rising, single point] in experiment [1] (measured here: GFP channel); 14.1 µM [rising, single point] in experiment [1] (measured here: RFP channel); 20 µM [falling, full curve, poor fit] in experiment [2] (measured here: lipid (BODIPY) channel AC50); 16.9 µM [falling, full curve, poor fit] in experiment [3] (setting [11]); 20.6 µM [falling, partial curve] in experiment [4] (setting [13]); 2.91 µM [falling, full curve] in experiment [4] (setting [12]). For the same compound, in experiment [6], the AC50 is 13.8 µM [falling, partial curve, poor fit].

For `CSc1ccc2c(c1)C(N1CCN(C)CC1)Cc1ccccc1S2` (stereo not given), the AC50 in experiment [1] (measured here: GFP channel) was 35.5 µM [falling, single point]; in experiment [1] (measured here: RFP channel) it was 25.1 µM [falling, single point]; in experiment [3] (setting [10]), 21.3 µM [falling, full curve]; in experiment [3] (setting [11]), 19 µM [falling, full curve]; in experiment [4] (setting [13]) it was 20.6 µM [falling, single point]; in experiment [4] (setting [12]), 14.6 µM [falling, partial curve]. For the same compound, in experiment [5], the AC50 was 10 µM [falling, partial curve].

Regarding `Cc1ccccc1/C=C/C1=NCCN1`, the concentration at half-maximal activity (AC50) in experiment [1] (measured here: GFP channel) was 25.1 µM [falling, single point]; in experiment [1] (measured here: RFP channel), 35.5 µM [falling, single point]; in experiment [3] (setting [10]) it was 67.5 µM [falling, partial curve, poor fit]; in experiment [3] (setting [11]), 60.1 µM [falling, partial curve, poor fit]; in experiment [4] (setting [13]), 14.6 µM [falling, single point]. Further, the max response turned out to be 39.3% in experiment [2] (setting [8]) and 40.8% in experiment [2] (setting [9]).

As for `NC(=O)CNCCC(c1ccccc1)c1ccccc1`, the AC50 is 5.01 µM [falling, single point] in experiment [1] (measured here: GFP channel); 5.01 µM [falling, single point] in experiment [1] (measured here: RFP channel); 95.3 µM [falling, single point] in experiment [3] (setting [11]).

Regarding `N[C@@H](Cc1c[nH]c2ccccc12)C(=O)O`, the AC50 in experiment [1] (measured here: GFP channel) is 35.5 µM [rising, single point]; in experiment [1] (measured here: RFP channel), 35.5 µM [rising, single point]; in experiment [3] (setting [11]) it was 84.9 µM [falling, single point].

As for `C[C@@H](Oc1ccc(Oc2cnc3ccc(Cl)cc3n2)cc1)C(=O)O`, the half-maximal activity concentration (AC50) is 12.6 µM [falling, single point] in experiment [1] (measured here: GFP channel); 1.26 µM [rising, partial curve, poor fit] in experiment [1] (measured here: RFP channel); 33.8 µM [falling, partial curve] in experiment [3] (setting [11]).

For `OCCN1CCN(CCCN2c3ccccc3Sc3ccc(Cl)cc32)CC1`, the half-maximal activity concentration (AC50) in experiment [1] (measured here: GFP channel) was 22.4 µM [falling, single point]; in experiment [1] (measured here: RFP channel), 17.8 µM [falling, partial curve]; in experiment [3] (setting [10]), 47.8 µM [falling, partial curve]; in experiment [3] (setting [11]) it was 47.8 µM [falling, partial curve, poor fit]; in experiment [4] (setting [13]) it was 16.4 µM [falling, single point]; in experiment [4] (setting [12]) it was 18.4 µM [falling, single point]. Also, the max response stood at 29.3% in experiment [2] (setting [8]) and 31.8% in experiment [2] (setting [9]).

On to `CC[C@H](C)C(=O)O[C@H]1CCC=C2C=C[C@H](C)[C@H](CC[C@@H]3C[C@H](O)CC(=O)O3)C21` (stereo not given in full), for which the AC50 was 2.51 µM [falling, partial curve, poor fit] in experiment [1] (measured here: GFP channel); 14.1 µM [falling, partial curve, poor fit] in experiment [1] (measured here: RFP channel); 8.49 µM [falling, full curve] in experiment [3] (setting [11]). Also, the max response in experiment [2] (setting [8]) is -45.4%; in experiment [2] (setting [9]), -49.4%.

`CCC1(O)CC2CN(CCc3c([nH]c4ccccc34)[C@@](C(=O)OC)(c3cc4c(cc3OC)N(C)C3[C@]45CCN4CC=C[C@@](CC)([C@@H](OC(C)=O)[C@]3(O)C(=O)OC)[C@H]45)C2)C1` (stereo not given in full): the AC50 in experiment [1] (measured here: GFP channel) was 0.0708 µM [falling, full curve, poor fit]; in experiment [1] (measured here: RFP channel), 0.0708 µM [falling, full curve, poor fit]; in experiment [2] (measured here: cell number channel AC50) it was 3.98 µM [falling, full curve, poor fit]; in experiment [3] (setting [10]), 60.1 µM [falling, partial curve, poor fit]; in experiment [3] (setting [11]), 10.7 µM [falling, partial curve, poor fit]; in experiment [7], 517 nM [falling, full curve]. The figures for the max response in experiment [2] (setting [8]) and in experiment [2] (setting [9]) were -15.7% and -14.6%, respectively. In addition, the viability change in experiment [7] is -32.6%.
